No constants are given. Whether binding was seen depends on the method and setting. In cells and extracts the contact can be indirect. Some results given as binding are weak or reduced against the parent protein; the word gives no strength.
Experiments:
[1] = biological target: apolipoprotein E receptor 2 (ApoER2), expressed in HEK293 cells (UniProt Q924X6); experiment: co-IP; extracts of transiently transfected HEK293 cells (NP-40 lysis buffer: 150 mM NaCl, 1% NP-40, 10% glycerol, 20 mM Tris pH 7.4); 400-500 ug protein, 1 h at 4 °C with anti-EGFR or anti-ApoER2 (Ab 186), then Protein A Sepharose; Dab1 detected by blot (Ab D4); unrelated IgG as control
[2] = biological target: epidermal growth factor receptor (EGFR), expressed in HEK293 cells (UniProt P00533); experiment: as above

Amino acid sequences for entries named in this document (tags omitted). Residues count along the entry.
UniProt Q924X6, residues 29-996: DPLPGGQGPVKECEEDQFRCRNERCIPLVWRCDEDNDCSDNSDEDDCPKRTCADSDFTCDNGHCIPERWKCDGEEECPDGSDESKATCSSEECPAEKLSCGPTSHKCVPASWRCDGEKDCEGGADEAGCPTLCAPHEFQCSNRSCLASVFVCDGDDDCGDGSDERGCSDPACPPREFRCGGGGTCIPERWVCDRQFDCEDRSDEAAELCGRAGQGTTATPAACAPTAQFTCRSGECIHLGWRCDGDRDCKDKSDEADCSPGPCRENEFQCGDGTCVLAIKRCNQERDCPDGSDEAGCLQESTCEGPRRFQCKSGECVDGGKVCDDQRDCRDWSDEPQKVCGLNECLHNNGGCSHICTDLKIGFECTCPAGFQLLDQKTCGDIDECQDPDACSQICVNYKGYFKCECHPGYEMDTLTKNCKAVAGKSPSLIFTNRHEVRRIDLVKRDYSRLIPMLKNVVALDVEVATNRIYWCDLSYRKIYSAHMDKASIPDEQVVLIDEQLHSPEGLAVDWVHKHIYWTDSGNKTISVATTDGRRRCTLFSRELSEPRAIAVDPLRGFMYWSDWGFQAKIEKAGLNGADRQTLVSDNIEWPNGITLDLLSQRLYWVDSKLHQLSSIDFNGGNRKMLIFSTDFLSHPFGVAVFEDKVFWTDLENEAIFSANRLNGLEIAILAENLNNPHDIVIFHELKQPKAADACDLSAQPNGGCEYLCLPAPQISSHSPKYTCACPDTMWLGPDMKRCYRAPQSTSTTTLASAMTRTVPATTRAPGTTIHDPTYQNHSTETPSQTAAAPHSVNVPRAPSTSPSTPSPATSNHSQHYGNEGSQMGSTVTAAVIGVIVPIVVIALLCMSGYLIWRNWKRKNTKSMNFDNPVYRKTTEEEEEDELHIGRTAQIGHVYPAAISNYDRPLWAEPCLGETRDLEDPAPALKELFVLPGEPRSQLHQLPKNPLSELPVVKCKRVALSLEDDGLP

B1: Disabled 1 (Dab1), Dab1_555, expressed in HEK293 cells (protein, UniProt P97318-2 1-555)
chain: MSTETELQVAVKTSAKKDSRKKGQDRSEATLIKRFKGEGVRYKAKLIGIDEVSAARGDKLCQDSMMKLKGVVAGARSKGEHKQKIFLTISFGGIKIFDEKTGALQHHHAVHEISYIAKDITDHRAFGYVCGKEGNHRFVAIKTAQAAEPVILDLRDLFQLIYELKQREELEKKAQKDKQCEQAVYQTILEEDVEDPVYQYIVFEAGHEPIRDPETEENIYQVPTSQKKEGVYDVPKSQPVSAVTQLELFGDMSTPPDITSPPTPATPGDAFLPSSSQTLPGSADVFGSMSFGTAAVPSGYVAMGAVLPSFWGQQPLVQQQIAMGAQPPVAQVIPGAQPIAWGQPGLFPATQQAWPTVAGQFPPAAFMPTQTVMPLAAAMFQGPLTPLATVPGTNDSARSSPQSDKPRQKMGKESFKDFQMVQPPPVPSRKPDQPSLTCTSEAFSSYFNKVGVAQDTDDCDDFDISQLNLTPVTSTTPSTNSPPTPAPRQSSPSKSSASHVSDPTADDIFEEGFESPSKSEEQEAPDGSQASSTSDPFGEPSGEPSGDNISPQDGS
- binding [1]: binds
- binding [2]: binds

Reference: paper PMC7916142
